In PubChem BioAssay AID2685 (National Center for Advancing Translational Sciences (NCATS), 2010) one finds cell number change and AC50 data, which are given here for 17 compounds.

The nature of this test: qHTS Assay for Lipid Storage Modulators in Drosophila S3 Cells.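 For cell number change: cells counted by Cell Tracker Red CMTPX staining in the red channel.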 As to conditions: BODIPY lipid droplet fluorescence, 18-24 h; for cell number change: measured here: cell count max response, cells fed with added oleic acid. Put shortly:
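Laser-scanning cytometry quantifies lipid droplet accumulation (500–530 nm total intensity; droplet/cell object ratio) in oleic acid-fed (400 uM added) Drosophila S3 cells treated with a concentration series. 20 uM Triacsin C defined 100% inhibition.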

Where [1] appears, read: measured here: lipid fluorescence (Fed channel) AC50, cells fed with added oleic acid.
[2] abbreviates: measured here: cell number channel AC50, cells fed with added oleic acid.

Molecules are shown by their SMILES. This is one part of the list. Further columns of the screen follow, without active or inactive calls. Most of these compounds were active or inconclusive in the main read-out, so they are no random draw. Potencies come from curve fits of mixed quality, noted in brackets.

As to `Cc1ccccc1-c1nnc(SCc2ccccc2F)o1`, the cell number change was determined as 10.2%. For the same compound, the half-maximal activity concentration (AC50) under setting [1] was 9.2 µM [rising, single point]. As for `CCN(CC)CCn1c(NS(=O)(=O)c2ccc(C)cc2)nc2ccccc21`, the cell number change is -6.53%. Turning to `CCOC(=O)C1=C(C)N=C2c3ccccc3C(=O)C2C1c1ccc(Cl)cc1` (stereo not drawn), the cell number change is -61.6%. The half-maximal activity concentration (AC50) under setting [2] is 20.6 µM [falling, partial curve]. Further, under setting [1], the AC50 is 20.6 µM [falling, partial curve].

Regarding `O=C(NCCCN1CCc2ccccc2C1)Nc1ccc(Cl)cc1`, the cell number change was -4.04%. Also, the AC50 under setting [1] is 5.8 µM [falling, single point]. Regarding `Cc1cnc(C(=O)Nc2ccc(S(=O)(=O)NCC(C)C)cc2)cn1`, the cell number change was -18.3%. The half-maximal activity concentration (AC50) under setting [1] is 0.651 µM [falling, full curve].

Turning to `Cc1ccc(C(=O)OCC(=O)c2cc(C)n(CC3CCCO3)c2C)cc1` (stereo not drawn), the cell number change stood at 4.96%. Under setting [2], the AC50 was 6.51 µM [falling, single point]. The AC50 under setting [1] is 6.51 µM [falling, single point]. On to `CC(C)n1nc(C(=O)Nc2ccc3c(c2)OCO3)c2ccccc2c1=O`, for which the cell number change was -4.82%. The AC50 under setting [1] was 0.103 µM [rising, full curve, poor fit].

Turning to `Cc1[nH]c2ccccc2c1Cc1n[nH]c(=S)o1`, the cell number change was -12.2%. The AC50 under setting [1] was 0.731 µM [rising, single point]. Regarding `CCCCCn1c(N2CCN(Cc3ccccc3)CC2)nc2c1c(=O)[nH]c(=O)n2C`, under setting [1], the concentration at half-maximal activity (AC50) is 0.651 µM [rising, single point]. Regarding `Cc1ccc(CSc2ccc(S(=O)(=O)N3CCCC3)cn2)cc1`, the cell number change was -0.519%. For the compound `COc1ccc(S(=O)(=O)NC(C)C(=O)NCc2ccncc2)cc1C` (stereo not drawn), the cell number change turned out to be 18.5%. The concentration at half-maximal activity (AC50) under setting [1] is 0.092 µM [rising, full curve, poor fit]. For the compound `Cc1ccc2c(c1)c1c(n2CC(O)CN2C(=O)CNC2=O)C(=O)CCC1` (stereo not drawn), the cell number change is -7.8%. `COc1ccc(C(=O)Cn2c(Br)nc3c2c(=O)n(C)c(=O)n3C)cc1OC`: the cell number change was -16.1%. The AC50 under setting [2] was 0.58 µM [falling, full curve]. As to `COc1cccc([C@@H]2CC=C(C(=O)O)[C@H](c3ccc(F)cc3)N2S(=O)(=O)c2ccc(C)cc2)c1`, the cell number change came to 25.3%. Also, under setting [1], the AC50 is 18.4 µM [rising, single point]. In the case of `Cn1c(SCC(=O)N2CCN(c3ccccc3)CC2)nnc1-c1c[nH]c2ccccc12`, the cell number change is 30%. For the same compound, the concentration at half-maximal activity (AC50) under setting [2] is 3.66 µM [rising, single point]. For the same compound, the concentration at half-maximal activity (AC50) under setting [1] is 25.9 µM [rising, single point]. As for `COc1ccc(S(=O)(=O)N2CCOCC2)cc1C(=O)N(C)CCOc1ccc(Cl)cc1`, the cell number change amounted to 6.76%. The half-maximal activity concentration (AC50) under setting [1] is 0.651 µM [rising, single point].

Take `O=C(c1noc2c1CCCC2)N1CCN(Cc2ccccc2)CC1`: the cell number change is 17.1%. The AC50 under setting [1] was 20.6 µM [rising, single point].
